The campaign covered roughly 320,000 compounds. About 22,000 (6.9%) were called active. The shares of active, inactive and inconclusive entries below differ from those in the screen. Calls follow the shape of the dose curve; as a rule, active = well fitted inhibition curve with a large enough effect; inconclusive = small, poorly fitted or top-dose-only effect, or another doubt; inactive = no such curve, though single readings can be large or run the other way. Potencies of inconclusive entries are doubtful fits and often do not repeat.
experiment: Primary qHTS for delayed death inhibitors of the malarial parasite plastid, 96 hour incubation; settings: P. falciparum luciferase reporter growth; series mostly up to 28.7 µM; activity change, negative = inhibition: at the top concentration
In short: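 Luminescence readout: decreased luciferase signal marks inhibited growth of reporter-expressing P. falciparum in infected red cells (2% hematocrit, 0.05% parasitemia final), exposed to compound two generations (96 h, 37 C, 5% CO2).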
% is scaled to controls: 0 for no effect and ±100 for the full control effect; potency is read from the fitted curve at half-maximal effect.

Compound | activity change, negative = inhibition | Potency
COC(=O)c1ccccc1NC(=O)C1CCN(C(=O)Cc2ccccc2)CC1 | inactive: 103% | 
CC(C)(C)NC(=O)NC(=O)CSc1cccc(C(F)(F)F)c1 |  | inconclusive: 0.294 µM [inhibitor, full curve, poor fit]
Cc1ccccc1CC(=O)Nc1ccc2c(C)cc(=O)oc2c1 |  | inconclusive: 18.5 µM [inhibitor, partial curve, poor fit]
O=C(CN1C(=O)/C(=C\c2ccco2)SC1=S)Nc1ccc(O)cc1C(=O)O |  | inconclusive: 18.5 µM [inhibitor, single point]
C1=C(c2ccccc2)CCN(c2ncnc3nc[nH]c23)C1 |  | inconclusive: 11.7 µM [inhibitor, single point]
CN(C)Cc1ccccc1C(O)(c1ccccc1)c1ccccc1 |  | inconclusive: 18.5 µM [inhibitor, single point]
Cc1ccc(-n2ncc3c(=O)n(CC(N)=O)cnc32)cc1C |  | inconclusive: 18.5 µM [inhibitor, single point]
CCCCCOc1ccc(C(=O)CCC(=O)N2CCCC2)cc1 |  | inconclusive: 18.5 µM [inhibitor, single point]
COc1cccc(CNC(=O)CCC2CCCN(Cc3ccc4c(c3)CCO4)C2)c1 (stereo unspecified) |  | inconclusive: 14.7 µM [inhibitor, single point]
Cc1ccn2cc(C(=O)N3CCCC(Nc4ccc(F)cc4)C3)nc2c1 (stereo unspecified) | inactive: 85.4% | 
CC(=O)Nc1cc2ccc(OC(C)=O)cc2oc1=O |  | inconclusive: 7.38 µM [inhibitor, single point]
COC(=O)/C(C#N)=C/c1c(N2CCN(c3cccc(Cl)c3)CC2)nc2c(C)cccn2c1=O |  | inconclusive: 3.7 µM [inhibitor, full curve]
COc1ccc(N2CCN(CCC3Oc4cc([N+](=O)[O-])ccc4NC3=O)CC2)cc1 (stereo unspecified) |  | inconclusive: 18.5 µM [inhibitor, single point]
COc1ccc(-c2c(C#Cc3ccsc3)c3cc(-c4ccc5c(c4)OCO5)ccc3n2C)cc1 |  | inconclusive: 16.5 µM [inhibitor, single point]
CC(=O)c1ccc(-n2c(CCC(=O)O)ccc2-c2ccc(Br)cc2)cc1 | inactive: 14.4% | 
O=C(Nc1ccc(Br)cc1Br)C1CC(=O)N(Cc2ccccc2)C1 (stereo unspecified) | inactive: 13.1% | 
C[C@@H]1C=CC(=O)O[C@@H]1c1ccc(C(F)(F)F)cc1 |  | active: 2.33 µM
Cc1cc(NC(=O)C2CCCN(S(=O)(=O)c3c(C)noc3C)C2)no1 (stereo unspecified) |  | inconclusive: 18.5 µM [inhibitor, single point]
Cc1cc(Oc2ccccc2)nc(SCC(=O)Nc2ccc(Cl)c(Cl)c2)n1 |  | active: 13.1 µM
Cc1cc(C)n2nc(SCC(=O)Nc3c(C)n(C)n(-c4ccccc4)c3=O)nc2n1 |  | inconclusive: 4.15 µM [inhibitor, single point]
CCOC(=O)N1CCN(CC(=O)Nc2ccc([N+](=O)[O-])cc2C(=O)Nc2ccccc2F)CC1 |  | inconclusive: 18.5 µM [inhibitor, single point]
COc1ccccc1CNC(=S)NC1CCCC1 |  | inconclusive: 18.5 µM [inhibitor, single point]
Nn1cnnc1N/N=C/c1cc(Br)cc(Br)c1O | inactive: 69.5% | 

Reformatted as tab-separated lines: two of the compounds above.
Compound	activity change, negative = inhibition	Potency
Cc1ccc(-n2ncc3c(=O)n(CC(N)=O)cnc32)cc1C		inconclusive: 18.5 µM [inhibitor, single point]
Cc1ccn2cc(C(=O)N3CCCC(Nc4ccc(F)cc4)C3)nc2c1 (stereo unspecified)	inactive: 85.4%	

Following part.

Compound | activity change, negative = inhibition | Potency
Cc1cc(NC(=S)N(CCCN2CCOCC2)Cc2ccco2)ccc1Cl |  | inconclusive: 11.7 µM [inhibitor, single point]
O=c1c2ccccc2ncn1-c1cccc(Cl)c1 | inactive: -17.3% | 
CCC(C(=O)NCCCN1CC(C)CC(C)C1)n1ncn2c(cc3occc32)c1=O (stereo unspecified) |  | inconclusive: 18.5 µM [inhibitor, single point]
COCCCn1c(C)cc(C(=O)CN2c3cccc4cccc(c34)S2(=O)=O)c1C |  | inconclusive: 18.5 µM [inhibitor, single point]
O=C(Nc1ccccc1Cl)c1ccc(Cl)cc1Cl |  | inconclusive: 18.5 µM [inhibitor, single point]
CC(C)(C)NC(=O)C1CCN(C(=O)c2ccco2)CC1 | inactive: -4.88% | 
COc1ccc(-c2ccc(C(=O)O)o2)c([N+](=O)[O-])c1 |  | inconclusive: 0.0029 µM [inhibitor, partial curve, poor fit]
CNC(=S)n1cnc(N)n1 | inactive: -13.3% | 
Cc1c(C(=O)NC(=S)Nc2ccc(N3CCOCC3)cc2)cccc1[N+](=O)[O-] |  | inconclusive: 18.5 µM [inhibitor, single point]
O=C(NC(=S)Nc1ccc(N2CCOCC2)cc1)c1cncc(Br)c1 | inactive: 1.71% | 
CCc1ccc(/C=C2\SC(=S)N(CCC(=O)NCCCN3CCOCC3)C2=O)cc1 |  | inconclusive: 2.94 µM [inhibitor, full curve]
CNC(=S)N(CCc1c(C)[nH]c2ccc(OC)cc12)Cc1cc(OC)c(OC)c(OC)c1 |  | active: 14.7 µM
O=C1CCCc2nn(-c3ccccc3)c(-c3ccncc3)c21 |  | inconclusive: 20.8 µM [inhibitor, single point]
CC(=O)c1c(C)[nH]c(C(=O)Nc2cc(C)cc(C)c2)c1C |  | active: 5.86 µM
CCCN1CCC(=O)N([C@H](CO)CC(C)C)CC1 | inactive: -8.9% | 
CC1=C[C@H](C)[C@H](c2c(F)cccc2Cl)CC1=O | inactive: -25.8% | 
Cc1ccc2nc(NC(=O)CSc3nc4c(c(=O)n3C)SC(C)C4)sc2c1 (stereo unspecified) |  | inconclusive: 4.15 µM [inhibitor, single point]
Cc1ccsc1/C=C1\SC(N2CCOCC2)=NC1=O | inactive: 51.5% | 
CCN(CC)CCNC(=O)C(=O)Nc1ccc2c(c1)N(S(=O)(=O)c1cccs1)CCC2 |  | inconclusive: 10.4 µM [inhibitor, single point]
Cc1cccc(/C=N/NC(=O)c2ccc3c(c2)OCCO3)c1O |  | inconclusive: 18.5 µM [inhibitor, single point]
CCCC(=O)Nc1ccc(C=C(C(C)=O)C(C)=O)cc1 |  | inconclusive: 4.15 µM [inhibitor, full curve, poor fit]
Cc1ccc(NC(=O)CNC(=O)c2cccc(Cl)c2)nc1 | inactive: 20.6% | 
COc1ccccc1NC1CCCCC1NS(=O)(=O)c1ccccc1 (stereo unspecified) |  | inconclusive: 14.7 µM [inhibitor, single point]
